# The other results are listed elsewhere or left out. Repeats in this data set agree poorly, so a single value says little.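 HEK293T cells were given each compound shortly before transfection with a reporter in which red mCherry is followed by the SARS-CoV-2 frameshift element and then GFP in the −1 frame, so GFP appears only after frameshifting.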
# Test system: HEK293T
# Experiment: percent viability (nuclei count) relative to control; higher = more viable cells
# Conditions: 10 µM; 24 h
row,SMILES,percent viability [%]
1,CCCOc1ccccc1-c1nc2[nH]nnc2c(=O)[nH]1 [zaprinast],156
2,CC[N+](CC)(CC)CCOc1ccc(/C=C/c2ccccc2)cc1 [stilonium iodide],107
3,CC(=O)OCC(=O)[C@@]1(O)[C@@H](C)C[C@H]2[C@@H]3CCC4=CC(=O)C=C[C@]4(C)[C@@]3(F)[C@@H](O)C[C@@]21C,298
4,CN1C[C@@H]2C[C@H]1CN2c1cc2c(cc1F)c(=O)c(C(=O)O)cn2C1CC1 [danofloxacin],142
5,CCC(=O)OCC(=O)[C@@]1(OC(=O)CC)[C@H](C)C[C@H]2[C@H]3[C@H]([C@@H](O)C[C@@]21C)[C@@]1(C)C=CC(=O)C=C1C[C@H]3Cl,306
6,CSCC1CN(/N=C/c2ccc([N+](=O)[O-])o2)C(=O)O1 (stereo not drawn) [nifuratel],230
7,O=C(N/N=C/c1ccc([N+](=O)[O-])o1)c1ccc(O)cc1,305
8,CC(C)(Oc1ccc(C(=O)c2ccc(Cl)cc2)cc1)C(=O)O,155
9,CC/C=C\C/C=C\C/C=C\C/C=C\C/C=C\C/C=C\CCC(=O)O [doconexent],128
10,CC(C)(C)NC[C@H](O)COc1nsnc1N1CCOCC1,91.1
11,CO[C@H]1O[C@@H]2O[C@@]3(C)CC[C@H]4[C@H](C)CC[C@@H]([C@H]1C)[C@@]24OO3 [artemether],152
12,C[C@@H](c1nc(-c2ccc(C#N)cc2)cs1)[C@](O)(Cn1cncn1)c1cc(F)ccc1F [isavuconazole],63.5
13,CS(=O)(=O)c1ccc([C@@H](O)[C@@H](CF)NC(=O)C(Cl)Cl)cc1 [florfenicol],177

# Quoted at random: 2 compounds from above, in no set order.
row,SMILES,percent viability [%]
11,CO[C@H]1O[C@@H]2O[C@@]3(C)CC[C@H]4[C@H](C)CC[C@@H]([C@H]1C)[C@@]24OO3 [artemether],152
10,CC(C)(C)NC[C@H](O)COc1nsnc1N1CCOCC1,91.1
